{"source": "paper PMC7819943", "about": "“Rice protein-binding microarrays: a tool to detect cis-acting elements near promoter regions in rice”", "note": "This is one part of the list."}
{"molecular_target": "T1, OsSMF1 (Oryza sativa, UniProt Q6ZLB0 1-436)", "T1 sequence": "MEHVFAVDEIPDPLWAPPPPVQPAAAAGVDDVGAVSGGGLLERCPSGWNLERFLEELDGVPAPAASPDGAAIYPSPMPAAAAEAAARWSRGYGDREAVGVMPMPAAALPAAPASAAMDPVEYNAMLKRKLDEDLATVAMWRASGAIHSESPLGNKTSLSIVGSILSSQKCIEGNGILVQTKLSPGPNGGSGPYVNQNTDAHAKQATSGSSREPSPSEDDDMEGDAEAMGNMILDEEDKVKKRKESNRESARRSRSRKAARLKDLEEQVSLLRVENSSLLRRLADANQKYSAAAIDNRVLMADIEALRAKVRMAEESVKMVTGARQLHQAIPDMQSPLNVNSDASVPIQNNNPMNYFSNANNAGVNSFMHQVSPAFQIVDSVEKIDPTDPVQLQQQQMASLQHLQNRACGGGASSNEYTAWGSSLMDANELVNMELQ", "assay": "protein-binding microarray (RPBM); PBS, 2% BSA, 51.3 ng/ul salmon testes DNA, 50 uM zinc acetate, 200 nM TF, 25 C, 1 h; high values mean tight binding", "conditions": "protein: recombinant; tags: N-terminal polyhistidine and DsRed monomer fusion (pET32a); chain copies: 2; label: CyDye5-dUTP incorporated in the synthesized complementary strand; 3' TTTTT single-stranded linker to array surface; dsDNA, one strand shown", "outline": "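Per-feature fluorescence intensity (arbitrary units), read on an Axon 4000B scanner, is the binding signal. Transcription factors carrying an N-terminal polyhistidine tag and DsRed fusion were expressed in E. coli BL21-CodonPlus and purified on Ni–NTA. A custom Agilent array, made double-stranded by primer extension with Cy5-dUTP and blocked with 2% BSA, was incubated with 200 nM protein in PBS, 2% BSA, salmon testes DNA and 50 µM zinc acetate at 25 °C for 1 h and then washed.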"}
{"sequence": "CAGTGCCGACTGCCGAGGCAGAGAGGCAGACAAAGTGACACGGAGTCACCTAGTGCAG", "binding signal": "54900 fluorescence intensity (a.u.)"}
{"sequence": "CGCGTGGTCAGCTACACGTACTTGACTTGTTCTGTTACTCCGGAGTCACCTAGTGCAG", "binding signal": "4480 fluorescence intensity (a.u.)"}
{"sequence": "CCTCCTCCCTGATCGAGATCGAGTCGACACACATACACCACGGAGTCACCTAGTGCAG", "binding signal": "3560 fluorescence intensity (a.u.)"}
{"sequence": "CGCCAAGTCCGACGTCCTCCTCTGAACAATCCAAGTATCCCGGAGTCACCTAGTGCAG", "binding signal": "3270 fluorescence intensity (a.u.)"}
{"sequence": "CTTCCCTCCCTCATGCACGCTGACGCTGCAATGCTCCTCCCGGAGTCACCTAGTGCAG", "binding signal": "8110 fluorescence intensity (a.u.)"}
{"sequence": "CAAACAAGCCACGTAGATGCCACGTCATCCAAAACCGCCTCGGAGTCACCTAGTGCAG", "binding signal": "29600 fluorescence intensity (a.u.)"}
{"sequence": "AAACTCTGCACCAATGCAGTTCCAAGCATTACACATCATCCGGAGTCACCTAGTGCAG", "binding signal": "4350 fluorescence intensity (a.u.)"}
{"sequence": "GTTAAAATGTGTTTGATGTTTGGGTTCTATATTGCCACGCCGGAGTCACCTAGTGCAG", "binding signal": "13600 fluorescence intensity (a.u.)"}
{"sequence": "CGGCTCAATACCACGCGGGATCCACCGTGATTTCGGCCCACGGAGTCACCTAGTGCAG", "binding signal": "3210 fluorescence intensity (a.u.)"}
{"sequence": "GCCCGCCCGTCCCGTCCGACGTCCGCGTCACGCACGCGCGCGGAGTCACCTAGTGCAG", "binding signal": "7940 fluorescence intensity (a.u.)"}
{"sequence": "CCTAACGAAACGATCCGGGTGCCACGTTTGGAGGCAATAGCGGAGTCACCTAGTGCAG", "binding signal": "5700 fluorescence intensity (a.u.)"}
{"sequence": "AAGGAGAGGGAGGATGACATGTGGTCTCTCATGTCAGTGACGGAGTCACCTAGTGCAG", "binding signal": "3630 fluorescence intensity (a.u.)"}
{"sequence": "TAACCAAAACGCATGCATACGTACGTAAGTGACACCAGCCCGGAGTCACCTAGTGCAG", "binding signal": "4070 fluorescence intensity (a.u.)"}
{"sequence": "CCTGTCACCCTCTCCATCGCCACGCAGCACGCAACCTCGCCGGAGTCACCTAGTGCAG", "binding signal": "3580 fluorescence intensity (a.u.)"}
{"sequence": "TGTTCCACAAACTGTTCGTTTCTTTGCCAACGCCTCCAAACGGAGTCACCTAGTGCAG", "binding signal": "3470 fluorescence intensity (a.u.)"}
{"sequence": "AATGATCACCCCGTATGCAGGCAGGACGCGCAACTTGAGCCGGAGTCACCTAGTGCAG", "binding signal": "3220 fluorescence intensity (a.u.)"}
{"sequence": "ATGCGCCATGTCAAAGCCACGTCAGATAAAGACCGAGTCACGGAGTCACCTAGTGCAG", "binding signal": "22000 fluorescence intensity (a.u.)"}
{"sequence": "ATGCACGAATCTCTGAACTAATTGCACAGTGAAAGAATCGCGGAGTCACCTAGTGCAG", "binding signal": "3470 fluorescence intensity (a.u.)"}
{"sequence": "CGAAGACTAAGTCAACACCACCACGTAGTCGCCACATCAGCGGAGTCACCTAGTGCAG", "binding signal": "8880 fluorescence intensity (a.u.)"}
{"sequence": "TTGAGAACTTCATCATTGCCTCAGTCAGCTTGAGCGCCTACGGAGTCACCTAGTGCAG", "binding signal": "3380 fluorescence intensity (a.u.)"}
{"sequence": "GCTGGCGTGTTCGCTTCCGGTGATATCCACGTCGCCCGGCCGGAGTCACCTAGTGCAG", "binding signal": "6590 fluorescence intensity (a.u.)"}
{"sequence": "CTATAGTATCCTCTTATATTTAACTGTGAGGCTTTTCTCCCGGAGTCACCTAGTGCAG", "binding signal": "3460 fluorescence intensity (a.u.)"}
{"sequence": "GCGTTGCTAGATGCCACGTTGACACCTAGGTGTCAGTGAACGGAGTCACCTAGTGCAG", "binding signal": "7850 fluorescence intensity (a.u.)"}
{"sequence": "CAGACACACAAATTTTCCACAGTTTCAGGCTCGCAGGCAGCGGAGTCACCTAGTGCAG", "binding signal": "17500 fluorescence intensity (a.u.)"}
{"sequence": "TTTATTTATGACGTCATTATTCCCCTCTCGCGCGCCTATACGGAGTCACCTAGTGCAG", "binding signal": "11800 fluorescence intensity (a.u.)"}
{"sequence": "TCTACGTCAGGAGTTGAGCACAAATCATATCCGTCAGCTCCGGAGTCACCTAGTGCAG", "binding signal": "3410 fluorescence intensity (a.u.)"}
{"sequence": "GAGCTGTTGTTGTGACATCCCAGGTCTTAGTTTTATGCTTCGGAGTCACCTAGTGCAG", "binding signal": "3270 fluorescence intensity (a.u.)"}
{"sequence": "CTCATCTCAAGCTTTTCTCTCTCTCTCTCTCTTTGCACTACGGAGTCACCTAGTGCAG", "binding signal": "4680 fluorescence intensity (a.u.)"}
{"sequence": "AACTAAAATTCATGGACACCACGTATGTGTAAGTATGTGTCGGAGTCACCTAGTGCAG", "binding signal": "6320 fluorescence intensity (a.u.)"}
{"sequence": "TTTTCCCTGTTTCATTGACGTGGCATACGGTGGGTTCCACCGGAGTCACCTAGTGCAG", "binding signal": "20600 fluorescence intensity (a.u.)"}
{"sequence": "ACTGGCTCAGTGGTTAGTGGTGACTAGTCATCGGACTCGGCGGAGTCACCTAGTGCAG", "binding signal": "6520 fluorescence intensity (a.u.)"}
{"sequence": "CCTCGCCACGGCGAGGCCCTCCACGCCTGGGCGCTCAAGTCGGAGTCACCTAGTGCAG", "binding signal": "3570 fluorescence intensity (a.u.)"}
{"sequence": "ACCGACGAAGTGACGTGAGTCTATCAAACCTTGGGGAACCCGGAGTCACCTAGTGCAG", "binding signal": "3980 fluorescence intensity (a.u.)"}
{"sequence": "GGAGAGGAGGGGAAAAGAGAGAGGAGGCTGACGTGGCCACCGGAGTCACCTAGTGCAG", "binding signal": "34100 fluorescence intensity (a.u.)"}
{"sequence": "GTCCACGCGTGACGTGGATACAAGCGATTCGTCACCCCTCCGGAGTCACCTAGTGCAG", "binding signal": "17100 fluorescence intensity (a.u.)"}
{"sequence": "GCGCGGTGGTGGTGGTGGTGGTTGCTGTGGTAGCGAGGGTCGGAGTCACCTAGTGCAG", "binding signal": "4520 fluorescence intensity (a.u.)"}
{"sequence": "ATAGCTTGCTGCAGAATTGCTAATTAGCGCATACGCGTCACGGAGTCACCTAGTGCAG", "binding signal": "4920 fluorescence intensity (a.u.)"}
{"sequence": "AGAGGGAGGAGGAGGAAGGAAAGGAGAGAGGATGACCTGTCGGAGTCACCTAGTGCAG", "binding signal": "3530 fluorescence intensity (a.u.)"}
{"sequence": "CCCCATCCTGATGGTCAGAGTGAGCTGGAACATGTTTGCTCGGAGTCACCTAGTGCAG", "binding signal": "4550 fluorescence intensity (a.u.)"}
{"sequence": "ATCTCGTTGTTTTCAATGCGTAGAACTCTGTCACGACCTGCGGAGTCACCTAGTGCAG", "binding signal": "4400 fluorescence intensity (a.u.)"}
{"sequence": "GGTTTACACTACTACAAAACATCAAATAGGTGTCACCACTCGGAGTCACCTAGTGCAG", "binding signal": "4120 fluorescence intensity (a.u.)"}
{"sequence": "AAAGAAGAGCAAGGATTGATTAGGGACGATTGAATCGGGACGGAGTCACCTAGTGCAG", "binding signal": "3150 fluorescence intensity (a.u.)"}
{"sequence": "CCCGCCCGTGCCATCTTGCGCCGCCGCCCACCTCATGCCTCGGAGTCACCTAGTGCAG", "binding signal": "3490 fluorescence intensity (a.u.)"}
{"sequence": "TCCTTGCAATCGCCACATCACGTCCTTCAAGGTGTCACAACGGAGTCACCTAGTGCAG", "binding signal": "10300 fluorescence intensity (a.u.)"}
{"sequence": "TTATACACCTAGGTGGATGTCCACCTACGCCAATCTCCATCGGAGTCACCTAGTGCAG", "binding signal": "4400 fluorescence intensity (a.u.)"}
{"sequence": "TGACGGAGGTAGTCATCAAGTCATGGTTTCTGCCTATAATCGGAGTCACCTAGTGCAG", "binding signal": "3140 fluorescence intensity (a.u.)"}
{"sequence": "TCCAAAAGTTCTTGATGTGGCATGGTGGACATGAATTTGTCGGAGTCACCTAGTGCAG", "binding signal": "5240 fluorescence intensity (a.u.)"}
{"sequence": "CGACACCCTATATACCCGATGTGACACGCCAAAACTTTACCGGAGTCACCTAGTGCAG", "binding signal": "4060 fluorescence intensity (a.u.)"}
{"sequence": "GTGTTTGCCCACATAGGAATGAATACTAACAAGATATGCCCGGAGTCACCTAGTGCAG", "binding signal": "28100 fluorescence intensity (a.u.)"}
{"sequence": "ATATATTCCGTCGCGGGAGCCGACGTGTCTCGTTCCTCGTCGGAGTCACCTAGTGCAG", "binding signal": "13700 fluorescence intensity (a.u.)"}
{"sequence": "TATCAATAAAATAATTGATGACCTGGCAGCTTAGCTTAATCGGAGTCACCTAGTGCAG", "binding signal": "14600 fluorescence intensity (a.u.)"}
{"sequence": "AACTGGACTCTGGACAGGAGGGCTTGTGGTCAGCATGTCACGGAGTCACCTAGTGCAG", "binding signal": "3430 fluorescence intensity (a.u.)"}
{"sequence": "CCGACGCCAATAGCCCACGTCGCCGCCGCCGTCGGCCGTGCGGAGTCACCTAGTGCAG", "binding signal": "4130 fluorescence intensity (a.u.)"}
{"sequence": "ATATATATATATATATATATATGTGTGTGTGTGTGTGTCCCGGAGTCACCTAGTGCAG", "binding signal": "3520 fluorescence intensity (a.u.)"}
